Experimental data from the supplement of paper PMC12067093, “Discovery and optimisation of a covalent ligand for TRIM25 and its application to targeted protein ubiquitination” (Chemical Science, 2025).
The list shows a part of the results.

Sequences of proteins named here, by UniProt entry; tags and fusion partners are left off. A change or cut given only in a name is not applied to a line headed by its entry.
UniProt Q53H82: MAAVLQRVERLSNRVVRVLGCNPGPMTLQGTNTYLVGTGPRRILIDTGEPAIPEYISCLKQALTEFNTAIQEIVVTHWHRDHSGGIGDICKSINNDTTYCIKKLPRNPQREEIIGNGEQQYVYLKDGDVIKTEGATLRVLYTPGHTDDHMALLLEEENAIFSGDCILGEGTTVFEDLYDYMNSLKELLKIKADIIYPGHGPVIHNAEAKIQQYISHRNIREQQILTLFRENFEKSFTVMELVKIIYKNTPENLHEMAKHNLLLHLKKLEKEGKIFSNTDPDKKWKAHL
UniProt Q07866: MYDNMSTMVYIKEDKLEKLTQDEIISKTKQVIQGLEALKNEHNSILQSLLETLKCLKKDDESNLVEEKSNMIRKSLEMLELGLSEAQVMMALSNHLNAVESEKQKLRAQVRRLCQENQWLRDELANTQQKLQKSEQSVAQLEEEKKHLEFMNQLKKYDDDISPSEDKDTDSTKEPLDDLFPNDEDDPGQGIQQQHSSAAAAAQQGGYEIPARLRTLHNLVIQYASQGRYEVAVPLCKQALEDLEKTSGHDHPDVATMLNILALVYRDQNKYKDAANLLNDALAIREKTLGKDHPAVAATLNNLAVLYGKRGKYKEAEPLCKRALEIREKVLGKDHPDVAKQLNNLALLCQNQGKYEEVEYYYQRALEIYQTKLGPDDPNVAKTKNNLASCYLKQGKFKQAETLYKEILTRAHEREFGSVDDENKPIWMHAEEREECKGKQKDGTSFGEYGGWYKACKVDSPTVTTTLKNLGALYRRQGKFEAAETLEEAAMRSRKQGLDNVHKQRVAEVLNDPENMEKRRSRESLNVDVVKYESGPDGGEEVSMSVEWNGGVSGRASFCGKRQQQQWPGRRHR
UniProt O75037: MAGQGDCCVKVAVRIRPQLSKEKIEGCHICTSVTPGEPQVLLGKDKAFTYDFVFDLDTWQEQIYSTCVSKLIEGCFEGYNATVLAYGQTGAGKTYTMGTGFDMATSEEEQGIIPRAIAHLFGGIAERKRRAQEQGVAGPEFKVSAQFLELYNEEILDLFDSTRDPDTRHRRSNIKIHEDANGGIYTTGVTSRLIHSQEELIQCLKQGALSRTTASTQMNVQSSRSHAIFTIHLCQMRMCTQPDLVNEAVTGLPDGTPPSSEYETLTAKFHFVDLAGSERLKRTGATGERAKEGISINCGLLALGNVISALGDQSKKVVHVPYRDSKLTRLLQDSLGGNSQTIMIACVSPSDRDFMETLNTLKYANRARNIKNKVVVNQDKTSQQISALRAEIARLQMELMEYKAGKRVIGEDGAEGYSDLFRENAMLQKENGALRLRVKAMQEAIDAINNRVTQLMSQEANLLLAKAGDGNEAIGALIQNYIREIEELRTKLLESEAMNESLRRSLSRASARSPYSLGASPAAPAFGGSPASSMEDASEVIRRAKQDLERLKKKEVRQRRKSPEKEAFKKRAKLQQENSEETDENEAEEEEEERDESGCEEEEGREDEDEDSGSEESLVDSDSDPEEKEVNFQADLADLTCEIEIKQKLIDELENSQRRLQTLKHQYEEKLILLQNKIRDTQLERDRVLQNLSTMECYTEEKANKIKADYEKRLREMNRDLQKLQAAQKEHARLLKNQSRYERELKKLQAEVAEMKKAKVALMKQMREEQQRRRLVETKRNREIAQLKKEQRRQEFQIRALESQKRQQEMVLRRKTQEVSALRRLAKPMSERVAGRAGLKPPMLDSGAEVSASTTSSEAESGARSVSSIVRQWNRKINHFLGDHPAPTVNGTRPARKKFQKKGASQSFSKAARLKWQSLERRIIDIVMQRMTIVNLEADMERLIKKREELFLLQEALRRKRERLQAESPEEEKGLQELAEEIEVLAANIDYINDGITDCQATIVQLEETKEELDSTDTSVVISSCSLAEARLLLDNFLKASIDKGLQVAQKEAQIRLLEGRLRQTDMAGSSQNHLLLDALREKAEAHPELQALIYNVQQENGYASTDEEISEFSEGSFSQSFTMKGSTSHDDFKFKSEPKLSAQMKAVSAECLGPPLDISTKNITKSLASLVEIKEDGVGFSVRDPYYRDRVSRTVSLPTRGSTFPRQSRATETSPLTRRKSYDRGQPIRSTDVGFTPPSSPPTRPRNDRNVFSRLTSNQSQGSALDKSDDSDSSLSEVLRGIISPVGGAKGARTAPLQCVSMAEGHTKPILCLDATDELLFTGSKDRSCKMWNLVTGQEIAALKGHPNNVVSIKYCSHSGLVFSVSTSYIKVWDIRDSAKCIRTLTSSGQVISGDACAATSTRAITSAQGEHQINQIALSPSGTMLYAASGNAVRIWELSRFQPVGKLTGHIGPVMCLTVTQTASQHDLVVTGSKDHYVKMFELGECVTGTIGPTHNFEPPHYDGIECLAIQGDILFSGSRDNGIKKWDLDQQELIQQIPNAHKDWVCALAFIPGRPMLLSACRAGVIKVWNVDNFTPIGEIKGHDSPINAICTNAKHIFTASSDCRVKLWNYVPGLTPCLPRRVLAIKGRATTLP
UniProt Q9BW19: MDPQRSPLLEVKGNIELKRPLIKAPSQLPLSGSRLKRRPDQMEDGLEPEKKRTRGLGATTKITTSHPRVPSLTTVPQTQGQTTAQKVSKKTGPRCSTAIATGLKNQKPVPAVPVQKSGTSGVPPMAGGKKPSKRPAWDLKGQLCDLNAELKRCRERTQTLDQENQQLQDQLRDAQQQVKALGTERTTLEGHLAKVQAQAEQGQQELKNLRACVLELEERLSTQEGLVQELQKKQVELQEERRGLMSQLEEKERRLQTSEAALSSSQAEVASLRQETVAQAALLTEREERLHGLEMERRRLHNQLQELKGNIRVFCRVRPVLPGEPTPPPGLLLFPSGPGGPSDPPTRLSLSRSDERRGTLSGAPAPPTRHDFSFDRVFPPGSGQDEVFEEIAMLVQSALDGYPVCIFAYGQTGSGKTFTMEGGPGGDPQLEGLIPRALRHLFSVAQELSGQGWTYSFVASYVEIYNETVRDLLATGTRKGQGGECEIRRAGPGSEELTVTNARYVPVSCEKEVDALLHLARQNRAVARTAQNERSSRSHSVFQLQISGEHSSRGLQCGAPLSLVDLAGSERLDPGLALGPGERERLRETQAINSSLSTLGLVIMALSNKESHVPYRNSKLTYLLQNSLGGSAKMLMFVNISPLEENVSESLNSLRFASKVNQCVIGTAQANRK
UniProt Q9UIC8: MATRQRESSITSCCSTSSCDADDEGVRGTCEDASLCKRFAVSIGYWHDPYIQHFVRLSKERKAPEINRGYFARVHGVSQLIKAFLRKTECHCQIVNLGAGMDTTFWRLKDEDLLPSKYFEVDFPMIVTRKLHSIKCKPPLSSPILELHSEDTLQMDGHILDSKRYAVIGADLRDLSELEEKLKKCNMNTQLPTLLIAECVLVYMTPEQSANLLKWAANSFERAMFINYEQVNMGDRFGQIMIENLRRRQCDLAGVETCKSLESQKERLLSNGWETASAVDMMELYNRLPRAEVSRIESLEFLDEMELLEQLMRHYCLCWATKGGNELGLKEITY
UniProt Q1ED39: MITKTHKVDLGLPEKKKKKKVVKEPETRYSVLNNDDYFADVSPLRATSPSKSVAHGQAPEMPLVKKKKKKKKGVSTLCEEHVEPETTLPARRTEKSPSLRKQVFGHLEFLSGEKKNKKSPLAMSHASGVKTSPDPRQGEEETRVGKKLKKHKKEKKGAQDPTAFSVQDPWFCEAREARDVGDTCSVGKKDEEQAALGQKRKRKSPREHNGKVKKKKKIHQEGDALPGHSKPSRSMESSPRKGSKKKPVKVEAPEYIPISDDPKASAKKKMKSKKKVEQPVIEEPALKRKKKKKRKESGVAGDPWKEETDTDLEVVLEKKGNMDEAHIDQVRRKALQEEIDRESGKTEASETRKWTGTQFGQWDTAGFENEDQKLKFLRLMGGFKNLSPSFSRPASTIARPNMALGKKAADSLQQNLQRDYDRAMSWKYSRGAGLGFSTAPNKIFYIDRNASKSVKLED
UniProt P33176: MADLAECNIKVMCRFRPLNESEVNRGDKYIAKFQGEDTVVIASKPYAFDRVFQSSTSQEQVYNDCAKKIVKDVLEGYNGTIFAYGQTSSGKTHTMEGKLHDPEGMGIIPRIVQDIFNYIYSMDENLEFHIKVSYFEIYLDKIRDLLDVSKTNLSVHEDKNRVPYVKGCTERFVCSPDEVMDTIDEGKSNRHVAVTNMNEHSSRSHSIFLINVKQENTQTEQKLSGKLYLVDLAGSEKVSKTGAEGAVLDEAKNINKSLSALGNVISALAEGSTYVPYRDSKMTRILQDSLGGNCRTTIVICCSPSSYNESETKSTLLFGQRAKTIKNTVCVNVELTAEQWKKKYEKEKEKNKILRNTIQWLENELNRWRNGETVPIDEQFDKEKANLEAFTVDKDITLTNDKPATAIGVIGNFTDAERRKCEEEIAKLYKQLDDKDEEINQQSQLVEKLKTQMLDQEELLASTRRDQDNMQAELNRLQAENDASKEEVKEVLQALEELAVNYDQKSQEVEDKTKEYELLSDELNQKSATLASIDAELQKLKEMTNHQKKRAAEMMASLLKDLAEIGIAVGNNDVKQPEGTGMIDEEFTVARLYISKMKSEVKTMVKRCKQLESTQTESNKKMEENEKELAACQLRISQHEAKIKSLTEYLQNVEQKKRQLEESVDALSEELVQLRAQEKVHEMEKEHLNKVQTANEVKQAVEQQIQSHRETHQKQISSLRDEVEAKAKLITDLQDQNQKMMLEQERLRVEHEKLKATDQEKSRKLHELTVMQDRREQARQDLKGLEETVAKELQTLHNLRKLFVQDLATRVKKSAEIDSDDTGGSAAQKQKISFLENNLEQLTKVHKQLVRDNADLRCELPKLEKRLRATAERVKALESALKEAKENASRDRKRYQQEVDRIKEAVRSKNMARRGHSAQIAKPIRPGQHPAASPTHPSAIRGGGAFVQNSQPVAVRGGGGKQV
UniProt Q9H9P8: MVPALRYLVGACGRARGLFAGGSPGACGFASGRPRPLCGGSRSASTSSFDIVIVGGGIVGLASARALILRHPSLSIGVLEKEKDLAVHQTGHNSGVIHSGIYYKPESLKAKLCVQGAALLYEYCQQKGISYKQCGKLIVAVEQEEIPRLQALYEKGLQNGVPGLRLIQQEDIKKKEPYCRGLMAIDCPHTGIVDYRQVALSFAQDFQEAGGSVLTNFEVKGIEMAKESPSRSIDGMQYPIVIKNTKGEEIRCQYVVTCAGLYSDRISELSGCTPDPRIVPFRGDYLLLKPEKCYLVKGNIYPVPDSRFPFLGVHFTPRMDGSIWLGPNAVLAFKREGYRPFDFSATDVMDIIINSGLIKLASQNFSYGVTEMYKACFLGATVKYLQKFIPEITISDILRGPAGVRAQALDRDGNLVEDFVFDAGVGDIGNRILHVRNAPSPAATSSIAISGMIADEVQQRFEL
UniProt Q969R5, whole entry, looked up: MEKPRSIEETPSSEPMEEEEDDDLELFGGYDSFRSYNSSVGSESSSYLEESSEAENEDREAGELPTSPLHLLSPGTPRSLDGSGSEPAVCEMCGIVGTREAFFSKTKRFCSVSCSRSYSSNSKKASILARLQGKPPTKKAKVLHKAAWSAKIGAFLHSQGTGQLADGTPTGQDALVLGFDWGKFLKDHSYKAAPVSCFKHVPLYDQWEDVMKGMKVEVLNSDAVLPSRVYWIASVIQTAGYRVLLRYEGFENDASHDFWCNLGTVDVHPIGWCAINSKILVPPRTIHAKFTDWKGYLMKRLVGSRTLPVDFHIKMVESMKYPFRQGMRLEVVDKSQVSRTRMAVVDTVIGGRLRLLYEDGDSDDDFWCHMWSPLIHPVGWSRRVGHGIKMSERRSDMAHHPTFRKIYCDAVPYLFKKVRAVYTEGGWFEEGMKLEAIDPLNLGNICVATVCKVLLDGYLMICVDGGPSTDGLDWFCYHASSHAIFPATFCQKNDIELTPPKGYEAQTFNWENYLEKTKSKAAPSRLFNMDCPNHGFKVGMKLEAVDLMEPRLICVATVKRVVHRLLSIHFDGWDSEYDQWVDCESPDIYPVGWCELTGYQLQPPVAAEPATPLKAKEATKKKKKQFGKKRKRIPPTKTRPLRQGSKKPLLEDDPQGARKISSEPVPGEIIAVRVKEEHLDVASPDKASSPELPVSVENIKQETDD

Compound: CC1Cc2ccccc2N1C(=O)C1CCCN(C1)C(=O)CCl (mixture of isomers) [TRIM25 ligand 11 (diastereomer mixture)]
Test: probe-labelled cysteine peptide fold change vs DMSO (competition) (log2 fold change); higher = less target engagement (more negative = stronger competition)
Conditions: THP-1, incubation time: 4 h
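Note: competitive chemoproteomic profiling in live THP-1 cells with an iodoacetamide desthiobiotin (IA-DTB) probe, comparing probe-labelled peptide intensities in compound-treated cells against DMSO-treated controls.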

| Target | probe-labelled cysteine peptide fold change (10 µM) | probe-labelled cysteine peptide fold change (50 µM) |
| --- | --- | --- |
| LACTB2_Q53H82_21_VLGCNPGPMTLQGTNTYLVGTGPR (UniProt Q53H82) | -0.0989 | -0.185 |
| KNL1_Q8NG31_1407_GQLDCVITLHK (UniProt Q8NG31) | 0.02 | 0.0193 |
| KLC1_Q07866_559_ASFCGK (UniProt Q07866) | 0.0458 | -0.0774 |
| KIF21B_O75037_203_LIHSQEELIQCLK (UniProt O75037) | 0.154 | 0.11 |
| KIF23_Q02241_165_NSMDIQCEVDALLER (UniProt Q02241) | -0.111 | -0.174 |
| KIFC1_Q9BW19_485_KGQGGECEIR (UniProt Q9BW19) | 0.0549 | 0.0451 |
| LACTB2_Q53H82_58_RILIDTGEPAIPEYISCLK (UniProt Q53H82) | -0.0382 | -0.079 |
| LARS_Q9P2J5_573_NFEATLGWLQEHACSR (UniProt Q9P2J5) | -0.00584 | -0.174 |
| LCMT1_Q9UIC8_136_CKPPLSSPILELHSEDTLQMDGHILDSK (UniProt Q9UIC8) | 0.0129 | -0.112 |
| KNOP1_Q1ED39_184_DVGDTCSVGK (UniProt Q1ED39) | -0.128 | -0.343 |
| KIF5B_P33176_65_VFQSSTSQEQVYNDCAK (UniProt P33176) | 0.0509 | -0.00101 |
| L2HGDH_Q9H9P8_187_GLMAIDCPHTGIVDYR (UniProt Q9H9P8) | 0.101 | 0.187 |
| KIF2C_Q99661_154_QFSVPPAPTRPSCPAVAEIPLR (UniProt Q99661) | -0.0599 | -0.166 |
| L3MBTL2_Q969R5_554_LICVATVK (UniProt Q969R5) | 0.51 | 0.04 |
